One substance from article PMC5466598 (Scientific Reports, 2017) can be followed below.

Strings that start with PEPTIDE1 are HELM notation: dots part the residues, brackets hold end groups and non-standard residues.

This data set in a line: peptide synthesis. The following applies: conjugation step, TFA salt.

On to “PEPTIDE1{[FITC5].[PEG4].E.[PEG2trz]}|PEPTIDE2{R.G.D.[dF].K}|PEPTIDE3{R.G.D.[dF].K}|PEPTIDE4{[PEG2trz]}$PEPTIDE2,PEPTIDE2,1:R1-5:R2|PEPTIDE3,PEPTIDE3,1:R1-5:R2|PEPTIDE1,PEPTIDE2,4:R2-5:R3|PEPTIDE1,PEPTIDE4,3:R3-1:R1|PEPTIDE4,PEPTIDE3,1:R2-5:R3$$$V2.0”, for which the conjugation yield came to 71.9% and the “final purity (method not given)” value came out at 97.7%.
